# Measured values taken from paper PMC5592244.
# Sequences of proteins named here, by UniProt entry; tags and fusion partners are left off.
# UniProt O60566: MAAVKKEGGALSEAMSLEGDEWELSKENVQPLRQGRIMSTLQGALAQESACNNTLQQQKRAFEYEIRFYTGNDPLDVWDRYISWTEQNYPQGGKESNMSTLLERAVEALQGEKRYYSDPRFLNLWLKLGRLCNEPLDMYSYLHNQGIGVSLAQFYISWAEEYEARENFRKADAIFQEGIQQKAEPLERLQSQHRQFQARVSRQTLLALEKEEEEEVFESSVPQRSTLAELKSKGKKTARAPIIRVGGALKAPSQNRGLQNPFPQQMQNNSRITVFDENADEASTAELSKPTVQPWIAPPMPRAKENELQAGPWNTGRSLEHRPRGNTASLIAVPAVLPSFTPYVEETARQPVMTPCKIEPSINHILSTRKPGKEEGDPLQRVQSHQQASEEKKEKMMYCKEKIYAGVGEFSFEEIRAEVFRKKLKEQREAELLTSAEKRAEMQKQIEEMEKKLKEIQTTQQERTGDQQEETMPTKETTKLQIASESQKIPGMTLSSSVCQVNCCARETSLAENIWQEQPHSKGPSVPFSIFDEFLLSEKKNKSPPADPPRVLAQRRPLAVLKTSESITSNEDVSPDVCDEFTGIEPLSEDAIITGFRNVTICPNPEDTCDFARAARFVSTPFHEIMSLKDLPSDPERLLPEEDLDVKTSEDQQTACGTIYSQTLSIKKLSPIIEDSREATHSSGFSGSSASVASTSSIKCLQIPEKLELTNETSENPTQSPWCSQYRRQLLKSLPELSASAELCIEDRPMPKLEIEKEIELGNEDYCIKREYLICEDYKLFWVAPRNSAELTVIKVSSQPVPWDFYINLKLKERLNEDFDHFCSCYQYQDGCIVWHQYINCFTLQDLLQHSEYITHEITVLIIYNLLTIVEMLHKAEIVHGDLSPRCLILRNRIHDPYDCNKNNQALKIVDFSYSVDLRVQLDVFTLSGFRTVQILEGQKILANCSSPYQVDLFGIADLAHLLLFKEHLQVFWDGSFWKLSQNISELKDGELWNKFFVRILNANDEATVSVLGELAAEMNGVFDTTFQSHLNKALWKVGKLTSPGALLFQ
# UniProt O43683: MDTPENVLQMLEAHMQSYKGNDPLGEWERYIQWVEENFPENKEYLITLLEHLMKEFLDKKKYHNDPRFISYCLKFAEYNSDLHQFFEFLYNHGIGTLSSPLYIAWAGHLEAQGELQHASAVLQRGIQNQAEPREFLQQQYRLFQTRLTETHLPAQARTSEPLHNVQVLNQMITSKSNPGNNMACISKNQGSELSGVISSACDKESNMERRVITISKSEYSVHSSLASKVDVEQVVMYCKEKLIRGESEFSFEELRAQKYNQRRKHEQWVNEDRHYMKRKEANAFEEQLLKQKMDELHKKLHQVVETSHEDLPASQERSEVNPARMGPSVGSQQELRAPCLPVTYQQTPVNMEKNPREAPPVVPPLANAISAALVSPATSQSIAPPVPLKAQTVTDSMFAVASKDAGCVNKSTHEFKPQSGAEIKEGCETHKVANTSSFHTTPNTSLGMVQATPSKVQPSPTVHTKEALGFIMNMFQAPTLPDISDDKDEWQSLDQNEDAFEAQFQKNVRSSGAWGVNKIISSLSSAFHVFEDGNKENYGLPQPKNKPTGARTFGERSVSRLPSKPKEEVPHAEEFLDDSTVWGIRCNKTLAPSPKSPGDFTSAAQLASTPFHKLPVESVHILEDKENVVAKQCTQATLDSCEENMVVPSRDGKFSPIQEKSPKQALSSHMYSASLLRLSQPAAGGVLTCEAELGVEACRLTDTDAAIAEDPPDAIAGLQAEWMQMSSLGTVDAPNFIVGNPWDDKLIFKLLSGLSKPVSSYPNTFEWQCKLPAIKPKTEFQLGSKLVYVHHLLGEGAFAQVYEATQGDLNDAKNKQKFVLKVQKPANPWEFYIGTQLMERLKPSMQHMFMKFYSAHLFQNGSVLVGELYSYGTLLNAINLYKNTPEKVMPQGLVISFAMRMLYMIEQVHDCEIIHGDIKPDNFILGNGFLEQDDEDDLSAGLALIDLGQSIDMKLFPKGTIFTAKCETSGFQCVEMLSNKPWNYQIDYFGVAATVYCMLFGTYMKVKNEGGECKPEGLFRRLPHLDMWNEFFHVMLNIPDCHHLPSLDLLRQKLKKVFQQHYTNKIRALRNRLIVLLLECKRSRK
# Results are given in words; binding and its absence hold for the method and conditions named. Binding seen in cells or lysates may run through a third protein. A yes stands for co-enrichment or nearness to the bait. Other partners may have been found.
# Target: FLAG-UBR5-CS (catalytically dead UBR5, C2768S) (human) (UniProt O95071)
# Assay: affinity purification with mass spectrometry; FLAG-tagged UBR5 baits in LiCl-stimulated HEK293T cells; lysis buffer 20 mM Tris-HCl pH 7.4, 100 mM NaCl, 10% glycerol, 0.2% Triton X-100; Flag affinity gel 2 hr at 4°C; eluted with 3xFlag-Peptide; LC-MS/MS
row,Substance,binding
1,"BUB1β (endogenous, HEK293T) (from UniProt O60566 1-1050)",binds
2,"BUB1 (endogenous, HEK293T) (from UniProt O43683 1-1085)",binds
